In experiment [1] the target is MTA2 (human) (human (endogenous in HeLa)) (UniProt O94776). The experiment in a line: affinity purification with mass spectrometry; anti-MTA2 IP from pooled fractions 6-8 of the preparative sucrose gradient of HeLa nuclear extract; protein A Dynabeads, washed with PBS pH 7.4, 0.02% Tween 20.
Experiment [2] shares this target. The experiment in a line: affinity purification with mass spectrometry; anti-MTA2 IP from pooled fractions 6-8 (high-molecular-weight fractions) of the preparative sucrose gradient of HeLa cytosolic extract; protein A Dynabeads, washed with PBS pH 7.4, 0.02% Tween 20.
Experiment [3] addresses MTA2 (Xenopus laevis) (Xenopus laevis (endogenous in eggs and embryos)). The experiment in a line: affinity purification with mass spectrometry; anti-MTA2 IP from partially fractionated pre-MBT (stage 6) Xenopus laevis embryo extract; protein A Dynabeads, washed with PBS pH 7.4, 0.02% Tween 20.
The target is the same in experiment [4]. The experiment in a line: affinity purification with mass spectrometry; anti-MTA2 IP from partially fractionated post-MBT (stage 18) Xenopus laevis embryo extract; protein A Dynabeads, washed with PBS pH 7.4, 0.02% Tween 20.
Experiment [5] shares this target. The experiment in a line: affinity purification with mass spectrometry; rabbit anti-MTA2 (ab8106) and protein A Dynabeads; fractionated activated Xenopus laevis egg extract; beads washed with PBS pH 7.4, 0.02% Tween 20; proteins found only in the MTA2 IP and not in the control IP.

Amino acid sequences for entries named in this document (tags omitted).
UniProt O94776: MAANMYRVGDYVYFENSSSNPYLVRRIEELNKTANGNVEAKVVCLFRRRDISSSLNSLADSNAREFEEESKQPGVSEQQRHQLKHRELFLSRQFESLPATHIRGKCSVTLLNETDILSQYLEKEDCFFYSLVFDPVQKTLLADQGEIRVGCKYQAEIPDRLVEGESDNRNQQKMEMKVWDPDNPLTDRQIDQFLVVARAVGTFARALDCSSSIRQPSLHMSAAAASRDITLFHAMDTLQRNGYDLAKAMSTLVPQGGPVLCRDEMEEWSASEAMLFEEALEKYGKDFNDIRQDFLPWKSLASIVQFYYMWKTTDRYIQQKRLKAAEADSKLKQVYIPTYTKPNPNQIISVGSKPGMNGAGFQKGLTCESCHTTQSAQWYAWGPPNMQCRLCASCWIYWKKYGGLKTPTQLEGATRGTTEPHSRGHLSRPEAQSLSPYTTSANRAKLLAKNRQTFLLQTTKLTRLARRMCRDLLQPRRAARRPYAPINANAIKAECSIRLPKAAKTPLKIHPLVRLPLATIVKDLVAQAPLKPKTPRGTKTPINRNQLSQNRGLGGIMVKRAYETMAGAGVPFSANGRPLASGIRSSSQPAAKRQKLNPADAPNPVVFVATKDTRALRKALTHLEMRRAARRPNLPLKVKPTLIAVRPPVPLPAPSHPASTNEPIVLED
UniProt Q12873: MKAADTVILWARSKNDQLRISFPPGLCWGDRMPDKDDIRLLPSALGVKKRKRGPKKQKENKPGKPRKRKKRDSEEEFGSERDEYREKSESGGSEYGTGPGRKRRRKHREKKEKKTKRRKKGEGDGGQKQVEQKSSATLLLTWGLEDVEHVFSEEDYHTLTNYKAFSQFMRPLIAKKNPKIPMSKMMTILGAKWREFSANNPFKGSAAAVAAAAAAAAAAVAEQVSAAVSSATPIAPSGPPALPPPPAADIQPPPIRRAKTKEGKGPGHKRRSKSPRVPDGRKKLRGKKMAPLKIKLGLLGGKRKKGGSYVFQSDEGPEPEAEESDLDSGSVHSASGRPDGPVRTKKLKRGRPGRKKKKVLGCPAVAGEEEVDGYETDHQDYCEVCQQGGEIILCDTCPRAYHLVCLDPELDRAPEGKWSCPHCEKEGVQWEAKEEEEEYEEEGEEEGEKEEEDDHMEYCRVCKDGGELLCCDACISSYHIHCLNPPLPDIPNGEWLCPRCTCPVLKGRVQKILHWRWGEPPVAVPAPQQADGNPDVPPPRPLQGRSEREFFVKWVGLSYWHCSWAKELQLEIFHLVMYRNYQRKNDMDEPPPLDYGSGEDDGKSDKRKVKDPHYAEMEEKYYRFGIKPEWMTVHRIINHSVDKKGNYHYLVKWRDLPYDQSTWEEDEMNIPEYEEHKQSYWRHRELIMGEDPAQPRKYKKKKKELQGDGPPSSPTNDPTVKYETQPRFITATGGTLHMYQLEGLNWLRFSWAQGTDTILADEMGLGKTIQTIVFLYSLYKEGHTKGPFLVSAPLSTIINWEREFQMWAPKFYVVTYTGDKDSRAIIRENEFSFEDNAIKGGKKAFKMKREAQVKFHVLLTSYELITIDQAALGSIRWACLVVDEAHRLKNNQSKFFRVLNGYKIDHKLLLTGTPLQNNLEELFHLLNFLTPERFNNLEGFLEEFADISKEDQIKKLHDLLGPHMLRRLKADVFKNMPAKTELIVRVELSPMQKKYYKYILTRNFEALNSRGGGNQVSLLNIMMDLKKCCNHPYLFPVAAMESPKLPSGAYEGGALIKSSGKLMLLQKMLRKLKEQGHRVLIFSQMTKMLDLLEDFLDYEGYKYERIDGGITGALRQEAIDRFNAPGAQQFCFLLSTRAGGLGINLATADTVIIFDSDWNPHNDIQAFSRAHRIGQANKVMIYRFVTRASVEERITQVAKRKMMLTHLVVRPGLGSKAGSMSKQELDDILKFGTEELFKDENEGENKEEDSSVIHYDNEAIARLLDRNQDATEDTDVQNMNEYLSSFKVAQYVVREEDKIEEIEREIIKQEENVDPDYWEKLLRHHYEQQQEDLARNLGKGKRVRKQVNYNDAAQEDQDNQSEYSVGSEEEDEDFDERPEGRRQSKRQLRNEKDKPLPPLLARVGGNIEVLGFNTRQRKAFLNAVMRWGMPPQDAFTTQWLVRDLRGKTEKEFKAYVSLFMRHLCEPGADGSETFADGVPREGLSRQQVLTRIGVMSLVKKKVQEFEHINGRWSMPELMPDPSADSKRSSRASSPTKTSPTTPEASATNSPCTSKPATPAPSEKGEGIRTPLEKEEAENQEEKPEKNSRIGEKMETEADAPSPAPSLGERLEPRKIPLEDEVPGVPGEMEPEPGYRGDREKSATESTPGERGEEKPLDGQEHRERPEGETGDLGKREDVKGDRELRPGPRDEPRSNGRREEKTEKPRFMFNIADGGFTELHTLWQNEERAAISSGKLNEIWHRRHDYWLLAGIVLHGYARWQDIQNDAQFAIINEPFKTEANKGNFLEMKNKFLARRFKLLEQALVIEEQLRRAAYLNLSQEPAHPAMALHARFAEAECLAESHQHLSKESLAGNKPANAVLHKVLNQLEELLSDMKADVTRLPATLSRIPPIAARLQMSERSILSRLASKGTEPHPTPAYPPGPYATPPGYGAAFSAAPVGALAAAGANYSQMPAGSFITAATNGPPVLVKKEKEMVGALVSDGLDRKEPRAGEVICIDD
UniProt Q14839: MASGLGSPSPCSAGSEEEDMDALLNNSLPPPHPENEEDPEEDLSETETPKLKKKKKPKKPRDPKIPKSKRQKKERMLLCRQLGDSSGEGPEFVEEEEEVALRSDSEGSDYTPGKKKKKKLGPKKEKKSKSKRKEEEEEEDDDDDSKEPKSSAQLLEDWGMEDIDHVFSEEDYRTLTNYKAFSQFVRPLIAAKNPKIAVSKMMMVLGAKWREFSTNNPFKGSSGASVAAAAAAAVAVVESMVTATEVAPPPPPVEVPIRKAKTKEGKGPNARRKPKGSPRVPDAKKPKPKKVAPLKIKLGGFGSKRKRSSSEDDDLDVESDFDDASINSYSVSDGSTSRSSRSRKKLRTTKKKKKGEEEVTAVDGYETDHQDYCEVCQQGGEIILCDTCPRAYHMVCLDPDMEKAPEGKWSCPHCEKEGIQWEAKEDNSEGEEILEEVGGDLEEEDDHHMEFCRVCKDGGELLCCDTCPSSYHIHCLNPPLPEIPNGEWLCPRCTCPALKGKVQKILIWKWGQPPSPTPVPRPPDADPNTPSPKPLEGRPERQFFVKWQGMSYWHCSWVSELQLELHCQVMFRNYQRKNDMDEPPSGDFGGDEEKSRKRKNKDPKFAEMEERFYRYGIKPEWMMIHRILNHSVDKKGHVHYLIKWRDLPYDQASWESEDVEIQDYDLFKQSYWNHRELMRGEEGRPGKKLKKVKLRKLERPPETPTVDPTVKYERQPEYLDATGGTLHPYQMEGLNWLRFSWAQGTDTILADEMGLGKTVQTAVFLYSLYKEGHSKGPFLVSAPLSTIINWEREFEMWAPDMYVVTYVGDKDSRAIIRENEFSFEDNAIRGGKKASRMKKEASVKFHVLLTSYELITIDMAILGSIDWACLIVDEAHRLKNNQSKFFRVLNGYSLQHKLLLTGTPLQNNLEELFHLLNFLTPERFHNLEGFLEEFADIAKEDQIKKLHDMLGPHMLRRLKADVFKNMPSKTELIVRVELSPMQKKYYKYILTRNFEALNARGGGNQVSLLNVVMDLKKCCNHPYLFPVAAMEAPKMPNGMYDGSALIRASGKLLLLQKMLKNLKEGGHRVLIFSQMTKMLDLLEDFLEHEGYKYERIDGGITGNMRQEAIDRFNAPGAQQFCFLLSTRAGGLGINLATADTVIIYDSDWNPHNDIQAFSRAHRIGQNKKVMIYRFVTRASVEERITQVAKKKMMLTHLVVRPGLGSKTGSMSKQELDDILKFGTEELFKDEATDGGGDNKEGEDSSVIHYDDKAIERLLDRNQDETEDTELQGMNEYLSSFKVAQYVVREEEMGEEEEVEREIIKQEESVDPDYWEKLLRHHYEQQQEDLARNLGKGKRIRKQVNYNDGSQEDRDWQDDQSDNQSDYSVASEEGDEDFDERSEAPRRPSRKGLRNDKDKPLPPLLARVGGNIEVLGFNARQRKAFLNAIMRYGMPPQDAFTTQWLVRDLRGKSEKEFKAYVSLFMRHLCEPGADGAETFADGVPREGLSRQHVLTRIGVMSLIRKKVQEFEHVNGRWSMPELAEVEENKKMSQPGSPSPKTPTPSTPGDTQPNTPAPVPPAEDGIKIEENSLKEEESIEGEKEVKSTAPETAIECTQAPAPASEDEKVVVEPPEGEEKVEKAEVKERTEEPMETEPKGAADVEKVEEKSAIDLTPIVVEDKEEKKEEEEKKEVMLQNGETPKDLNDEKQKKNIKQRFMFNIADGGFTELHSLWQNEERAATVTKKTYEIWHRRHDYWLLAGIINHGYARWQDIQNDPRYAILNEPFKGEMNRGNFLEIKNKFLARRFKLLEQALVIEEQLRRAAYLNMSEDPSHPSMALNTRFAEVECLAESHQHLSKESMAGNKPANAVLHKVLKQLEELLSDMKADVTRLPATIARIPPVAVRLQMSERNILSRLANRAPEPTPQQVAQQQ
UniProt Q8WXI9: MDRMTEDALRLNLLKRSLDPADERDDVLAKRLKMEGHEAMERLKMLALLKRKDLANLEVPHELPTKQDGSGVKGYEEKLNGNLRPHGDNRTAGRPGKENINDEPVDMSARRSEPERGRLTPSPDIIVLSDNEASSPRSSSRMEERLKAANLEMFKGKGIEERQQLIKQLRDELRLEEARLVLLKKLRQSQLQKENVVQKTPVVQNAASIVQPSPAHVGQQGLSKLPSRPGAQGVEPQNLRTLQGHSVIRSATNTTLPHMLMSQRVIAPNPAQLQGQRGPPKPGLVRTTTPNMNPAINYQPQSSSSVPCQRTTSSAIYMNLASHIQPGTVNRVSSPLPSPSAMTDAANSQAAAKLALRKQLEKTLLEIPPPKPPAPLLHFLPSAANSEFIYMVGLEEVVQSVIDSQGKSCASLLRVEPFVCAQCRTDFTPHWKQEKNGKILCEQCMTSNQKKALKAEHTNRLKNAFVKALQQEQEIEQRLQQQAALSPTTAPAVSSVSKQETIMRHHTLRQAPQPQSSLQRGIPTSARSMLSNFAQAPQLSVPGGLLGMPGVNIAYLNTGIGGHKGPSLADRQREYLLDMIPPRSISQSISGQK
UniProt Q13547: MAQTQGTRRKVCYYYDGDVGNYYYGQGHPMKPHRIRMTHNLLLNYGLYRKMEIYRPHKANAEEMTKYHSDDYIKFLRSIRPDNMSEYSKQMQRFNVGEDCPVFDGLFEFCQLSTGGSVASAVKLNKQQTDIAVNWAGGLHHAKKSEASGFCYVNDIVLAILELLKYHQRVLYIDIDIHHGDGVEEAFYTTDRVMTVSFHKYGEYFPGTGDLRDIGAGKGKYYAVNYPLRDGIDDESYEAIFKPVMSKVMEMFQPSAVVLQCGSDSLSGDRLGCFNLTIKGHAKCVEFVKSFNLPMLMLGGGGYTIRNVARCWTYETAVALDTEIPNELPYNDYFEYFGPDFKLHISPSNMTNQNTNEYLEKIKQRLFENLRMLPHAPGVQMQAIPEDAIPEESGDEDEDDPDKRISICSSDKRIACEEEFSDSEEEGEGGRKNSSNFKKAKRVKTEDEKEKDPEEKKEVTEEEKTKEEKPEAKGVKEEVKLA
UniProt Q92769: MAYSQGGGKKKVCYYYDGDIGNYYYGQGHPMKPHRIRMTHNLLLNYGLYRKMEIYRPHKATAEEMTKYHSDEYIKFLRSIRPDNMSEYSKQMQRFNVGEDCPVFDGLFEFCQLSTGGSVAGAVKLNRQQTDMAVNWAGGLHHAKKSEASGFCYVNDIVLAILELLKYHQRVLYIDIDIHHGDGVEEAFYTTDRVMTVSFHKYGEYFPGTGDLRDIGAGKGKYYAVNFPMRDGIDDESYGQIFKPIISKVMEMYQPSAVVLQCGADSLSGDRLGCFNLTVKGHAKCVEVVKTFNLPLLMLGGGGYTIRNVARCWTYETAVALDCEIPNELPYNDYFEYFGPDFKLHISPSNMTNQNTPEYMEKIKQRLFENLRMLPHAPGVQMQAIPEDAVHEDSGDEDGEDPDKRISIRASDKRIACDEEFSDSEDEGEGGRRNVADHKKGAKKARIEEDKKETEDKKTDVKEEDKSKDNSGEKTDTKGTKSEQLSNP
UniProt Q9UBB5: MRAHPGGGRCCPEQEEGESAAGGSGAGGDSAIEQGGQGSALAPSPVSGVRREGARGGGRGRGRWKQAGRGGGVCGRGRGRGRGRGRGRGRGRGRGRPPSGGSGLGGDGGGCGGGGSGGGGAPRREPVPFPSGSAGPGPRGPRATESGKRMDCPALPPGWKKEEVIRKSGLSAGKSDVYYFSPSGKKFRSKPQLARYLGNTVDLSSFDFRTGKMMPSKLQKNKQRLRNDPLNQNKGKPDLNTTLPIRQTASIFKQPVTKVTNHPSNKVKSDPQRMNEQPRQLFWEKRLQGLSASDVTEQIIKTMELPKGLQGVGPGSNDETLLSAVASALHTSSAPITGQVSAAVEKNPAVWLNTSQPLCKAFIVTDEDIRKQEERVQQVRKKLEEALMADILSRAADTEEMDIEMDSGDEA

These are yes or no findings as the source states them, for the method shown. In cells and extracts the contact can be indirect. These calls come from enrichment with a bait or labelling near it, and not all partners need be listed.

As to “CHD3 (human) (from UniProt Q12873 1-2000)”, in experiment [1], the binding entry is on record as “binds”.
Regarding “CHD4 (human) (from UniProt Q14839 1-1912)”, in experiment [1], the binding entry is listed as “binds”.
Take “GATAD2B (human) (from UniProt Q8WXI9 1-593)”: in experiment [1], the binding entry is on record as “binds”.
For “HDAC1 (human) (from UniProt Q13547 1-482)”, the binding result in experiment [1] and in experiment [2] was “binds” in each case.
As to “HDAC2 (human) (from UniProt Q92769 1-488)”, the binding entry in experiment [1] and in experiment [2] was “binds” each time.
With “MBD2 (human) (from UniProt Q9UBB5 1-411)”, the binding result in experiment [1] is on record as “binds”.

B1: MBD3 (Xenopus laevis) (protein, UniProt Q9PUM9 1-282)
chain: MEKKRWECSALQGWKKEEVTRRSGLSAGKSDVYYYSPSGKKFRSKPQLARYLGNSMDLSTFDFRTGKMLMSKINKNRQRMRYDGLNQSKGKPDLNTALPVRQTASIFKQPVTKVTNHPTNKVKSDPQKAVDQPRQLFWEKKLSGLNAFDIAEELVKTMELPKGLQGVGPGCTDETLLSAIASALHTSTMPITGQLSAAVEKNPGVWLNTSQPLCKAFMVTDEDIRKQEELVQQVRKKLEEALMADMLAHVEEISKDGGAPLDKDIDDEEEDQDPREQEADDV
As for B1, the binding result in experiment [3], in experiment [4] and in experiment [5] was “binds” each time.

B2: DOC1/CDK2AP1 (deleted in oral cancer 1/Cdk2-associated protein 1) (human) (protein, UniProt O14519 1-115)
chain: MSYKPNLAAHMPAAALNAAGSVHSPSTSMATSSQYRQLLSDYGPPSLGYTQGTGNSQVPQSKYAELLAIIEELGKEIRPTYAGSKSAMERLKRGIIHARGLVRECLAETERNARS
Regarding B2, in experiment [1], the binding entry is “binds”.

Values taken from article PMC5848848.
